Where “and” joins values, the source holds several entries; their conditions need not be identical. Equal entries are not always repeated. Hit rate of the full screen: of about 300,000 compounds, about 5,400 (1.8%) were called active. The inconclusive results got no clear call from the source; some entries with a clear call stand among them for comparison. The call rests on the fitted dose curve; tested in HEK293 cells. A potency beside an inconclusive call is a rough fit, not a confirmed value.
test: qHTS for inhibitors of binding or entry into cells for Marburg Virus; conditions: Marburg virus pseudotyped entry inhibition, cell reporter; activity change, negative = inhibition: at 37.8 µM (top of the series) unless noted
On the % scale 0 is the no-effect control and ±100 the full control effect; potency means the concentration at half of the fitted maximal effect.

Row | Structure (SMILES) | Potency | activity change, negative = inhibition
1 | Cc1cc(OCCN2CCCC2)cc(C(C)C)c1 | inconclusive: 2.31 µM [inhibitor, partial curve, poor fit] | 
2 | CCC(=O)Oc1ccc(C(=O)Nc2cccc(NC(=O)c3ccco3)c2)cc1 | inconclusive: 20 µM [activator, single point] | 
3 | CCCN1C(C(=O)c2ccccc2)=C(OC(=O)COc2ccccc2)c2ccccc2S1(=O)=O | inconclusive: 6.31 µM [inhibitor, single point] | 
4 | CC(C)c1ccc2[nH]c3c(c2c1)CCC/C3=N\NC(=O)c1ccncc1 | inconclusive: 35.5 µM [inhibitor, single point] | 
5 | O=C(CSc1cccc[n+]1[O-])c1cc(Cl)ccc1Cl |  | inactive: -15.6% [at 46.1 µM]
6 | COc1cc2c(=O)c(S(=O)(=O)c3ccc(F)cc3)cn(Cc3ccc(Cl)cc3)c2cc1OC |  | inactive: -0.15% [at 46.1 µM]
7 | COc1ccc(NC(=O)c2oc3ccccc3c2NC(=O)c2ccc3c(c2)OCO3)cc1 |  | inactive: 6.17%
8 | O=C(Nc1ccccc1)C(c1ccccc1)C1CCCC1 (configuration not stated) | inconclusive: 12.6 µM [inhibitor, partial curve, poor fit] | 
9 | C/C(CC(=O)Nc1ccc(Cl)c(C(F)(F)F)c1)=N\NC(N)=S | inconclusive: 8.2 µM [inhibitor, partial curve, poor fit] | 
10 | Cc1ccc(C(=O)Cn2cnc3ccccc3c2=O)cc1 | inconclusive: 35.5 µM [inhibitor, single point] | 
11 | CN1CCN(Cc2ccccc2Sc2ccccc2)CC1 | inconclusive: 25.1 µM [inhibitor, single point] | 
12 | COc1ccc(Cn2c(=O)[nH]c3cc(C(=O)N4CCN(c5cccc(Cl)c5)CC4)ccc3c2=O)cc1 | inconclusive: 5.01 µM [inhibitor, partial curve, poor fit] | 
13 | Cc1ccc(C)c(-n2nnnc2Sc2nc([N+](=O)[O-])nn2C)c1 | inconclusive: 28.2 µM [inhibitor, single point] | 
14 | COc1cc2ccccc2cc1C(=O)OCC(=O)NC1CCS(=O)(=O)C1 (configuration not stated) |  | inactive: -11.5% [at 46.1 µM]
15 | O=C(NCC1CCCN(C(=O)CN2CCCCC2)C1)c1ccccc1Cl (configuration not stated) |  | inactive: 12.8% [at 46.1 µM]
16 | Cc1cccc(N2CCN(S(=O)(=O)c3ccc4c(c3)CCCN4C(=O)C3CCC3)CC2C)c1 (configuration not stated) | inconclusive: 8.91 µM [inhibitor, partial curve, poor fit] | 
17 | Cc1ccc(Cl)cc1NC(=O)C(C)n1nnc2sc3c(c2c1=O)CCCC3 (configuration not stated) | inconclusive: 3.16 µM [inhibitor, partial curve, poor fit] | 
18 | CCC(CC)NC(=O)c1oc2ccccc2c1COc1ccccc1 | inconclusive: 2.82 µM [inhibitor, full curve, poor fit] | 
19 | COc1ccc(-n2cc(CNCCc3ncc(C)[nH]3)c(-c3ccccc3Cl)n2)cc1 | inconclusive: 14.1 µM [inhibitor, partial curve, poor fit] | 
20 | Cc1cc(C(F)F)n2nc(C(=O)Nc3ccc(S(=O)(=O)N4CCCC4)cc3)nc2n1 |  | inactive: 0.784%
21 | CCOC(=O)/C=C/C(=O)OCC(=O)Nc1ccc(Cl)cn1 | inconclusive: 7.94 µM [inhibitor, partial curve, poor fit] | 
22 | CCC(C(=O)Nc1cccc(Cl)c1C)n1nc(-c2ccc(C)cc2)ccc1=O (configuration not stated) | inconclusive: 3.55 µM [inhibitor, partial curve, poor fit] | 
23 | COc1ccc(CN2CCC(N3CCC(C(=O)N4CCOCC4)CC3)CC2)c(F)c1 |  | inactive: -8.34% [at 46.1 µM]

Quoted at random: 2 compounds from above, in no set order.
Row | Structure (SMILES) | Potency | activity change, negative = inhibition
22 | CCC(C(=O)Nc1cccc(Cl)c1C)n1nc(-c2ccc(C)cc2)ccc1=O (configuration not stated) | inconclusive: 3.55 µM [inhibitor, partial curve, poor fit] | 
21 | CCOC(=O)/C=C/C(=O)OCC(=O)Nc1ccc(Cl)cn1 | inconclusive: 7.94 µM [inhibitor, partial curve, poor fit] | 

Going on with the list:

Row | Structure (SMILES) | Potency | activity change, negative = inhibition
24 | CCCc1nc2sc3c(N4CCC(C)CC4)ncnc3c2c2c1CCCC2 | inconclusive: 3.16 µM [inhibitor, single point] | 
25 | Nc1nc(C2CC(=O)OC23CCCCC3)cs1 (configuration not stated) | inconclusive: 7.08 µM [activator, partial curve, poor fit] | 
26 | CN(C)c1ccc(C(=O)OCc2cc(=O)n3ccsc3n2)cc1 | inconclusive: 5.62 µM [activator, partial curve, poor fit] | 
27 | COC(=O)c1cc(CSc2nc3ccccc3[nH]2)oc1C | inconclusive: 15.8 µM [inhibitor, single point] | 
28 | O=C1c2cccc(OCC(=O)N3CCCc4ccccc43)c2CCN1Cc1ccc(F)cc1 | inconclusive: 3.26 µM [inhibitor, partial curve, poor fit] | 
29 | CN(CC(=O)Nc1ccccc1-c1ccccc1)C1CCCCC1 | inconclusive: 0.251 µM [activator, full curve, poor fit] | 
30 | CN(Cc1ccon1)C(=O)CC1C(=O)NCCN1Cc1cccc(F)c1F (configuration not stated) | inconclusive: 35.5 µM [activator, single point] | 
31 | O=C1CC(C(=O)O)S/C(=N\NC(=O)c2ccccc2)N1 (configuration not stated) |  | inactive: 1.05%
32 | Cc1cc(C)c2cc(C(=O)N3CCC(C(=O)c4ccc(F)cc4)CC3)[nH]c2c1 | inconclusive: 2.82 µM [inhibitor, partial curve, poor fit] | 
33 | Cc1ccccc1-c1cc(C(=O)Nc2sc(C)c(C)c2C(N)=O)c2ccccc2n1 | inconclusive: 12.6 µM [inhibitor, partial curve, poor fit] | 
34 | Cc1ccc(-c2nnc(-c3ccncc3)n2-c2ccc(C)cc2)cc1 |  | inactive: 9.11%
35 | CN(c1ccccc1)S(=O)(=O)c1ccc(Cl)c(C(=O)Nc2ccccc2N2CCOCC2)c1 | inconclusive: 6.31 µM [inhibitor, partial curve] | 
36 | CCCC12CN3CC(C)(CN(C1)C3c1ccco1)C2=O (configuration not stated) |  | inactive: 4.71% [at 46.1 µM]
37 | Cc1ccc(S(=O)(=O)NC(=O)c2cc(C)n(-c3ccccc3)c2C)cc1 |  | inactive: 7.05%
38 | COc1ccccc1NC(=O)Cn1c(=O)n(Cc2ccccc2)c(=O)c2sc3ccccc3c21 |  | inactive: 1.63% [at 46.1 µM]
39 | O=C(C=Cc1ccc2c(c1)OCO2)c1ccccc1 | inconclusive: 5.31 µM [activator, single point] | 
40 | CC(C)(C)NC(=O)CN(C(=O)c1csnn1)c1cccc2c1CCCC2 | inconclusive: 28.2 µM [inhibitor, partial curve, poor fit] | 
41 | CC1CN(C(=O)CN2C(=O)NC3(CCCCCCC3)C2=O)CC(C)O1 (configuration not stated) | inconclusive: 1.16 µM [inhibitor, single point] | 
42 | CC(C)(C)c1ccc(-c2nnc(SCC(=O)c3ccc4c(c3)OCCO4)o2)cc1 |  | inactive: 1.45%
43 | O=C(c1cnn2c(C(F)F)cc(-c3ccccc3)nc12)N1CCN(Cc2ccc3c(c2)OCO3)CC1 | inconclusive: 35.5 µM [inhibitor, single point] | 
44 | Oc1ccc(-c2nccs2)cc1 |  | inactive: 8.05% [at 46.1 µM]
45 | Cc1ccc2[nH]c3nc(SCCN4CCOCC4)nnc3c2c1 |  | inactive: 4.22%
46 | O=C(CNC(=S)N(Cc1ccccc1F)C1CCCCC1)NC1CC1 |  | inactive: -1.58%

In another format: 2 of the compounds above.
COC(=O)c1cc(CSc2nc3ccccc3[nH]2)oc1C
  Potency: inconclusive: 15.8 µM [inhibitor, single point]
O=C1c2cccc(OCC(=O)N3CCCc4ccccc43)c2CCN1Cc1ccc(F)cc1
  Potency: inconclusive: 3.26 µM [inhibitor, partial curve, poor fit]

The list continues.

Row | Structure (SMILES) | Potency | activity change, negative = inhibition
47 | O=C(CCSCCc1ccccn1)Nc1cc(F)ccc1F | inconclusive: 1.26 µM [inhibitor, partial curve, poor fit] | 
48 | O=C(O)Cn1c(-c2cscn2)nc2ccccc21 | inconclusive: 0.517 µM [activator, partial curve] | 
49 | COCCOC(=O)/C(=C/c1ccc(OC(=O)c2ccccc2)cc1)C(C)=O | inconclusive: 1.26 µM [activator, partial curve] | 
50 | N#Cc1ccc(S(=O)(=O)N2CCc3[nH]c4ccc(F)cc4c3C2)cc1 | inconclusive: 35.5 µM [inhibitor, single point] | 
51 | CC1CN(S(=O)(=O)c2cccc(C(=O)NNC(=O)C(C)Oc3ccccc3F)c2)CC(C)O1 (configuration not stated) |  | inactive: -7.31% [at 46.1 µM]
52 | CN(C)CCNC(=S)Nc1ccc(Cl)cc1Cl | inconclusive: 16.4 µM [inhibitor, partial curve, poor fit] | 
53 | CC(=O)c1c(N)c(C#N)c(C)n1-c1ccc(Br)cc1 | inconclusive: 3.98 µM [activator, single point] | 
54 | Fc1ccc(/C=N/N2CCN(Cc3ccccc3)CC2)cc1 | inconclusive: 0.251 µM [inhibitor, full curve, poor fit] | 
55 | COc1cc(NC(=O)CN2C(=O)C(c3ccc(C)cc3)=NC23CCCCC3)cc(OC)c1 | inconclusive: 35.5 µM [inhibitor, single point] | 
56 | Cc1nn(-c2ccccc2)c(=S)c2ccccc12 | inconclusive: 18.4 µM [activator, single point] | 
57 | Cc1ccc(CNc2ccc(-c3nc(C(C)C)no3)cc2[N+](=O)[O-])cc1 |  | inactive: -0.0052% [at 46.1 µM]
58 | Cc1oc2ccc(O)c(CN3CCOCC3)c2c1C(=O)Nc1ccccc1 | inconclusive: 3.16 µM [inhibitor, single point] | 
59 | Cc1cc2cc(CCNC(=O)C(C)C)c(=O)[nH]c2cc1C |  | inactive: 6.79%
60 | CN1CCc2c(sc(/N=C/c3cc(C(C)(C)C)ccc3O)c2C#N)C1 |  | inactive: 8.57% [at 46.1 µM]
61 | Cc1ccc(NC(=O)c2cnn(-c3ccc(C)c(C)c3)c2C2CCN(C(=O)OC(C)(C)C)CC2)c(C)c1 | inconclusive: 2.24 µM [inhibitor, partial curve, poor fit] | 
62 | Cc1cccc(NC(=O)Cn2c(=O)n(CCC(C)C)c(=O)c3cccnc32)c1 | inconclusive: 15.8 µM [activator, partial curve, poor fit] | 
63 | Cc1cccc(C(C)C)c1NS(=O)(=O)c1cn(C)nc1C |  | inactive: -6.7% [at 46.1 µM]
64 | CN(C)CCCN(CCCNC(=O)/C=N\O)Cc1ccccc1 |  | inactive: -12.8%
65 | CCC1CCCCN1CC(O)Cn1c2ccccc2n2c(=O)cc(C)c(C#N)c12 (configuration not stated) | inconclusive: 12.6 µM [activator, single point] | 
66 | COc1ccc(N(CC(O)Cn2nnc3ccccc32)S(=O)(=O)c2ccc(C)cc2)cc1 (configuration not stated) | inactive and inconclusive: 1.3 µM [inhibitor, partial curve, poor fit] | 
67 | CCCCc1cc(=O)oc2cc(OCc3cc(OC)c(OC)c(OC)c3)c(Cl)cc12 | inconclusive: 12.6 µM [inhibitor, partial curve, poor fit] | 

Reference: PubChem BioAssay AID540276 (National Center for Advancing Translational Sciences (NCATS), 2011)
